PubChem BioAssay AID1159617 | Peter MacCallum Cancer Centre – 2016

Assay: 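Follow-up of migration screen hits for effects on endothelial cell form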 (tertiary re-screen of migration hits)
System: human HMBEC blood microvascular and HDLEC lymphatic endothelial cells
Reagent: siRNA pool against human genes, 40 nM
Detection: 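Automated imaging of phalloidin actin stain giving per-cell area and length; replicate means turned into robust z-scores relative to all screened samples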
Reading the numbers: cell area z-score, HMBEC and cell area z-score, HDLEC: higher = larger cells; cell length z-score, HMBEC: higher = longer cells
Shown is one part, drawn at random, of 153 reagents tested. 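Values are robust z-scores scaled across the full screen; higher values mean larger or longer cells.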 Further read-outs or replicates are left out here. Reagent sequences are not shown. The record does not give: the time to read-out.

no.	gene	cell area z-score, HMBEC	cell area z-score, HDLEC	cell length z-score, HMBEC
1	HOXC5	1.16	1.5	0.88
2	CALM2	0.63	-0.68	0.57
3	TES	2.06	-0.03	2.1
4	SF3B1	-1.12	-0.49	-1.09
5	SDCCAG8	1.26	1.99	0.79
6	BDH2	-0.05	0.19	-0.12
7	CBR1	0.77	-0.48	0.84
8	TMEM132E	0.55	-0.8	0.09
9	SGK3	1.79	-0.74	2.19
10	CATSPERT	0.08	0.84	-0.35
11	KRT80	-0.28	-0.21	-0.24
12	AXL	-0.96	-0.8	-1.28
13	GCK	-1.46	-1.02	-1.54
14	GDF3	-0.22	-1.5	-0.6
15	JHY	0.39	0.14	0.17
16	LRRC57	-0.65	0.56	-0.38
17	RTL8C	-0.33	0.01	-0.25
18	FBXW11	-0.22	0.38	-0.31
19	CYP1A1	-0.32	-1.03	-0.26
20	ACP2	1.03	0.3	2.23
21	GPR84	-0.12	-0.29	0.27
22	SCN1B	0.48	1.57	0.05
23	IL1B	1.09	-0.12	1.03
24	HPDL	-0.69	-1.24	-0.26
25	PLPPR2	0.23	0.73	0.52
26	BNIP1	0.09	-0.24	-0.24

Next part; the last 2 above are carried over.
no.	gene	cell area z-score, HMBEC	cell area z-score, HDLEC	cell length z-score, HMBEC
25	PLPPR2	0.23	0.73	0.52
26	BNIP1	0.09	-0.24	-0.24
27	PKN2	-0.35	-0.01	-0.08
28	NDUFA7	-1.31	-1.33	-1.52
29	SEPTIN4	0.75	-0.33	0.57
30	UGT1A7	2.79	4.05	2.12
31	AOC3	-1	-0.3	-1.15
32	MYL7	-0.68	0.37	-0.53
33	PGBD5	-0.39	-0.6	-0.2
34	AKT3	0.4	-0.15	0.37
35	APOA2	0.84	1.13	0.85
36	ISL2	0.14	-0.45	0.07
37	ZNF76	-0.31	0.1	-0.09
38	CRABP2	-0.99	-0.35	-0.98
39	RET	-0.32	-0.01	-0.28
